Test results: patent publication US20210101984A1 (JIANGSU HENGRUI MEDICINE, published 2021)
Results are given in words; binding and its absence hold for the method and conditions named. Some results given as binding are weak or reduced against the parent protein; the word gives no strength.

Legend:
[1] = target: T1, human 4Ig-B7-H3 antigen (SinoBiological cat# 11188-H08H) (human) (UniProt Q5ZPR3); assay: ELISA, plate coated with human 4Ig-B7-H3 at 1 ug/ml, HRP anti-human IgG Fc detection, OD450
T1 sequence: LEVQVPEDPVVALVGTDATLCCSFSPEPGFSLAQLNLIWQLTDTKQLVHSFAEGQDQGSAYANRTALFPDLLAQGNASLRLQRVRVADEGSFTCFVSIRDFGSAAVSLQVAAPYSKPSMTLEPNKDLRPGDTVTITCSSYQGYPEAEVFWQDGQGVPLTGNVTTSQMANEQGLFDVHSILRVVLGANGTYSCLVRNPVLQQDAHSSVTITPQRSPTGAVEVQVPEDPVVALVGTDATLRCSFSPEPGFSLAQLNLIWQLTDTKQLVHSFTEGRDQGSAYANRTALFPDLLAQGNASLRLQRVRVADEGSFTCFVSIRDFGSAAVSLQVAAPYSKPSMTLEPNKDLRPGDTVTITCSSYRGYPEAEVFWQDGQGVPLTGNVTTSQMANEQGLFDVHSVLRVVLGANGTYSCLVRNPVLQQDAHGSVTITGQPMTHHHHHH

[2] = target: T2, human 2Ig-B7-H3 antigen (R&D cat# 1949-B3-050/CF) (human) (UniProt Q5ZPR3); assay: ELISA
T2 sequence: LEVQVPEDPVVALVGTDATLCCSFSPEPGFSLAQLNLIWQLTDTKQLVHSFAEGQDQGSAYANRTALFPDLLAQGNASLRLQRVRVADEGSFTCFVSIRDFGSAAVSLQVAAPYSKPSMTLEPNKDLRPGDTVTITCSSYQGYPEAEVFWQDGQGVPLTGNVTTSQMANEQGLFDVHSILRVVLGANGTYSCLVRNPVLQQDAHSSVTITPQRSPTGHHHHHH

[3] = target: T1, human 4Ig-B7-H3 antigen (SinoBiological cat# 11188-H08H) (human); assay: ELISA
[4] = target: T3, murine B7-H3 antigen (R&D cat# 1397-B3-050/CF) (murine) (UniProt Q8VE98); assay: ELISA
T3 sequence: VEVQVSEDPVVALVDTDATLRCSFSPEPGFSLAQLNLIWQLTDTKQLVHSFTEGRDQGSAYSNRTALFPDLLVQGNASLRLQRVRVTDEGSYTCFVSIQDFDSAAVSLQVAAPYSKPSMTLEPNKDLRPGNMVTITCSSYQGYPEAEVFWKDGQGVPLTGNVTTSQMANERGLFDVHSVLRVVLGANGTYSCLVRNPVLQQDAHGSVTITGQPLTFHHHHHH

[5] = target: T2, human 2Ig-B7-H3 antigen (R&D cat# 1949-B3-050/CF) (human); assay: SPR (Biacore)
[6] = target: T1, human 4Ig-B7-H3 antigen (SinoBiological cat# 11188-H08H) (human); assay: SPR (Biacore)
[7] = target: T3, murine B7-H3 antigen (R&D cat# 1397-B3-050/CF) (murine); assay: SPR (Biacore)
[8] = target: T3, murine B7-H3 antigen (R&D cat# 1397-B3-050/CF) (murine); assay: ELISA, plate coated with murine B7-H3 at 1 ug/ml, HRP anti-human IgG Fc detection, OD450
[9] = target: T2, human 2Ig-B7-H3 antigen (R&D cat# 1949-B3-050/CF) (human); assay: ELISA, plate coated with human 2Ig-B7-H3 at 1 ug/ml, HRP anti-human IgG Fc detection, OD450

Measured: binding

B1: h1703-IgG1 (antibody, V domains shown)
VH: QVQLQESGGGLVQPGGSLRLSCAASGFTFSSYAMSWVRQAPGKGLEWVSAISGSGGSTYYADSVKGRYTISRDNSKNTLYLQMNSLRAEDTAVYYCAKGVGPVHALDVWGQGTTVTVSS
VL: DIRLTQSPSSLSASVGDRVTITCRASQSISTYLNWYQQKPGKAPILLINAVSGLQSGVPSRFSGSGSGTHFTLTITSLQPEDFATYYCQQSYSTPMWTFGQGTKVEIKR
notes: Fully human IgG1 with kappa light chain, from an scFv phage library, expressed in HEK293E cells
binds: all assays above
